Laboratory results taken from publication PMC7083938.
These are yes or no findings as the source states them, for the method shown. Some results given as binding are weak or reduced against the parent protein; the word gives no strength.

The chains behind the UniProt entries cited, without tags or fusion partners. Where a name states a change or a piece, a line headed by the entry shows the natural chain unless it says otherwise. Residues count along the entry.
UniProt Q9Y6N7, residues 26-897: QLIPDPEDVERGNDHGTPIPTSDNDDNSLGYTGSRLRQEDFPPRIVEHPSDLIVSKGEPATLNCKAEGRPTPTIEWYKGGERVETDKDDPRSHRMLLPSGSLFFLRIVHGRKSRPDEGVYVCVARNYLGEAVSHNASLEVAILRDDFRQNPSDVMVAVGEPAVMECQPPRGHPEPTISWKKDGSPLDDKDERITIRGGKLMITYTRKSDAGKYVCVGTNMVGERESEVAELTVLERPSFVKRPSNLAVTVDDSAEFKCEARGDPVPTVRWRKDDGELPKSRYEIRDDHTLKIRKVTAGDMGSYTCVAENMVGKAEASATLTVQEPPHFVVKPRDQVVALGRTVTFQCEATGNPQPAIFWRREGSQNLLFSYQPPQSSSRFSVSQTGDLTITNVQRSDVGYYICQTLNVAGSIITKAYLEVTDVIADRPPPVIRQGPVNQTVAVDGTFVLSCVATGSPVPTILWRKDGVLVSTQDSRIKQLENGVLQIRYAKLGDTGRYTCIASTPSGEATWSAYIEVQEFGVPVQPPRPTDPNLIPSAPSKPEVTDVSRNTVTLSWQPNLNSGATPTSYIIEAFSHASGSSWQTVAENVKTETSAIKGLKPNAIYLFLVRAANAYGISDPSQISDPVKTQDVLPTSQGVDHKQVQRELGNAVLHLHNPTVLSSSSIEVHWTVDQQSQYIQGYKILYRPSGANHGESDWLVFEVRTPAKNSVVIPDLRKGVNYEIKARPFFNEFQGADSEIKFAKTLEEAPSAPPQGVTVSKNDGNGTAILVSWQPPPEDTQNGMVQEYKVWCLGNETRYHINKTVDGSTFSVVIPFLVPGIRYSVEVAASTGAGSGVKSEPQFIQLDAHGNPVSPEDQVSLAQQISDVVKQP
UniProt Q99435: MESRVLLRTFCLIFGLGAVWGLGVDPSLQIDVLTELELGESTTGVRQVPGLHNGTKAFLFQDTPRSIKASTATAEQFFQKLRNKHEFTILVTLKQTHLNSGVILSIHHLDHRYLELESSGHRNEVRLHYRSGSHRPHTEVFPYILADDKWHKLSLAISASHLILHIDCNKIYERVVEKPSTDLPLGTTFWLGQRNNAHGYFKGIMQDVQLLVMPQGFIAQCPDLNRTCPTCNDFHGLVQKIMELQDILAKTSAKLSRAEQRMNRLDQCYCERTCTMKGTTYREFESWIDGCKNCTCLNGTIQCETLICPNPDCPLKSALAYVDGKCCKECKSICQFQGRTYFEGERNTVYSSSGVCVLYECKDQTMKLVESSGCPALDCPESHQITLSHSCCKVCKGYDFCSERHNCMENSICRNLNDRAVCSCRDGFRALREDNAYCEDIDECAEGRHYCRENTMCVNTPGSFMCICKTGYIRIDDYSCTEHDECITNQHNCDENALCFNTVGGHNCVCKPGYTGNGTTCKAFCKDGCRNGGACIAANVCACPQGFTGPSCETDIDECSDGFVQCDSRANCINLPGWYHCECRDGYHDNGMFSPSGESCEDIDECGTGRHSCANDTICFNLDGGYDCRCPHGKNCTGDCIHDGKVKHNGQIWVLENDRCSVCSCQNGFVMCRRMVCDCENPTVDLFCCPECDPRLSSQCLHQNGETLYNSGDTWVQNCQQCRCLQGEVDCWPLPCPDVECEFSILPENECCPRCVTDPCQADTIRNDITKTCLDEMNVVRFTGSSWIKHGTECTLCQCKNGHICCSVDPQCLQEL
UniProt Q61220, residues 25-819: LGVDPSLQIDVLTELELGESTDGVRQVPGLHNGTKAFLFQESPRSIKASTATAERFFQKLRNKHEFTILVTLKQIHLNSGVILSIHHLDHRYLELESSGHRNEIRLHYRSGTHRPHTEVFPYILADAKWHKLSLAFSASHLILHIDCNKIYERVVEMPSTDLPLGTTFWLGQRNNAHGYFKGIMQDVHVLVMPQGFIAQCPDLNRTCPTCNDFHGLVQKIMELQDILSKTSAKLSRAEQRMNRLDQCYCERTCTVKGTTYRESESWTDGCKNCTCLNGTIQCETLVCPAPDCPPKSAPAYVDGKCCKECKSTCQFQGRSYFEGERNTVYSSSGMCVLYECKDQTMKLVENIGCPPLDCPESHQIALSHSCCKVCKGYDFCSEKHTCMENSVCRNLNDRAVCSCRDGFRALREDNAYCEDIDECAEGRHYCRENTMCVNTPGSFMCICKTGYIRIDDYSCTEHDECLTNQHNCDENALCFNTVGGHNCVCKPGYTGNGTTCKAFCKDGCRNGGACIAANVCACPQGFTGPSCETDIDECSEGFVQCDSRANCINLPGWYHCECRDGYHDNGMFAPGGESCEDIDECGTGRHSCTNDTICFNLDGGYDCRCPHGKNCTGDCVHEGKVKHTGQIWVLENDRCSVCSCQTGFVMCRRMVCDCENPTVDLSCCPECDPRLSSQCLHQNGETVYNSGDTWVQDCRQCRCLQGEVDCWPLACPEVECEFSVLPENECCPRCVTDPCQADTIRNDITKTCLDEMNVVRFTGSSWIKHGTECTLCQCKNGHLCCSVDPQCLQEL

Tests used:
[1] = target: T1, mouse Robo3.1 on COS-7 cells (mouse) (UniProt Q9Z2I4); experiment: AP-fusion protein binding assay on cells; AP-fusion proteins in conditioned medium diluted in AP-binding buffer (HBSS, 20 mM HEPES pH 7.0, 0.2% BSA, 5 mM CaCl2, 1 mM MgCl2, 2 µg/ml heparin), 90 min at 4 °C on receptor-expressing COS-7 cells; AP activity visualised with NBT/BCIP
T1 sequence: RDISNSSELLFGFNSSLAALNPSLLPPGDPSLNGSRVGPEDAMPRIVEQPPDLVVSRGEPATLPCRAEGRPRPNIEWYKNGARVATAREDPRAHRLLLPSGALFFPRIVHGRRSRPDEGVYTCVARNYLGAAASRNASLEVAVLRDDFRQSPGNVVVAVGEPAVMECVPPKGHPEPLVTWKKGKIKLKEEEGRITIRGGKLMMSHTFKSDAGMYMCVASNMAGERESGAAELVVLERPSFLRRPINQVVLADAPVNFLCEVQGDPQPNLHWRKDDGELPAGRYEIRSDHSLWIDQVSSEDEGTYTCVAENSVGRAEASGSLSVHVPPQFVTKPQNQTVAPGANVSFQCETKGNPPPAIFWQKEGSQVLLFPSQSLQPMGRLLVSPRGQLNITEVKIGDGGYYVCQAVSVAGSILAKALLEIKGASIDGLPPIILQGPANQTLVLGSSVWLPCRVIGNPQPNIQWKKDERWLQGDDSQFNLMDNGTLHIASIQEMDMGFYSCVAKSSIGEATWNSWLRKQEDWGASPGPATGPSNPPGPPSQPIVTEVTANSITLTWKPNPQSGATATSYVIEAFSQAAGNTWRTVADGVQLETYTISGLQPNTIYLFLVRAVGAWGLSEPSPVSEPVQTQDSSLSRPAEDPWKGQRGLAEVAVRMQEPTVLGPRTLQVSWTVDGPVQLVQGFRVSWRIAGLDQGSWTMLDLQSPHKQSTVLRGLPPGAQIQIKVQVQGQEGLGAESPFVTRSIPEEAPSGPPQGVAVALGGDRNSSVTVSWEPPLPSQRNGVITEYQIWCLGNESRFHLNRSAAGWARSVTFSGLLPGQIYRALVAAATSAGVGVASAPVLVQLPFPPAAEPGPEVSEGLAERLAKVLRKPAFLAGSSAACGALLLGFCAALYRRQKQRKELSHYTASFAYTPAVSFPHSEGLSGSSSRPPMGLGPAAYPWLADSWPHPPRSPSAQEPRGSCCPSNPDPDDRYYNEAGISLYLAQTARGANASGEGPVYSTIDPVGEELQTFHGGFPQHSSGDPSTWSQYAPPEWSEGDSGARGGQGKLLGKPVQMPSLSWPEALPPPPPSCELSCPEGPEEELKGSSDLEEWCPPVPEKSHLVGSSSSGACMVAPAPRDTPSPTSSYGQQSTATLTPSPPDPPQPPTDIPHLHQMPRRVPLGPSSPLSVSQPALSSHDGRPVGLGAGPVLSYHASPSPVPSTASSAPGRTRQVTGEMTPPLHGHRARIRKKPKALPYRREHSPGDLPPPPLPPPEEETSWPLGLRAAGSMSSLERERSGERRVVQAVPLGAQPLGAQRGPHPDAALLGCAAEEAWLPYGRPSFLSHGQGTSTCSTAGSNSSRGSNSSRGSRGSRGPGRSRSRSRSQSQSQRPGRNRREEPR

[2] = target: T2, human Robo3 FN1 left after proteolysis of hRobo3 FN1–3 in crystallization drops (human) (UniProt Q96MS0); experiment: crystal structure; sitting-drop vapor diffusion; complexes isolated by SEC, 15 mg/ml in HBS; both purified
T2 sequence: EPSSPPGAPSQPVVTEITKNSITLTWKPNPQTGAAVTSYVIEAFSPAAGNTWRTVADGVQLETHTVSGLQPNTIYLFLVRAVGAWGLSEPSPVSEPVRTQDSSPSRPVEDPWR

[3] = target: human Robo1 ectodomain (ECIA construct) (human) (UniProt Q9Y6N7); experiment: extracellular interactome assay (ECIA), ELISA-like; bait and prey constructs (pECIA-bait, pECIA-prey) secreted in conditioned media; levels normalised by western blot for mutants
[4] = target: T3, mouse Robo3 ectodomain (mouse) (UniProt Q9Z2I4); experiment: SPR; mRobo3 ECD (167 RU) and mRobo1^Robo3-FN1 ECD (177 RU) biotinylated with NHS-Biotin and captured on a Biacore Series S SA chip; full-length mNELL2 as analyte; 1:1 Langmuir isotherm with a linear nonspecific-binding term; regeneration with 10 mM EDTA; both purified
T3 sequence (chain, biotin (NHS-Biotin) where captured on the SA chip for SPR): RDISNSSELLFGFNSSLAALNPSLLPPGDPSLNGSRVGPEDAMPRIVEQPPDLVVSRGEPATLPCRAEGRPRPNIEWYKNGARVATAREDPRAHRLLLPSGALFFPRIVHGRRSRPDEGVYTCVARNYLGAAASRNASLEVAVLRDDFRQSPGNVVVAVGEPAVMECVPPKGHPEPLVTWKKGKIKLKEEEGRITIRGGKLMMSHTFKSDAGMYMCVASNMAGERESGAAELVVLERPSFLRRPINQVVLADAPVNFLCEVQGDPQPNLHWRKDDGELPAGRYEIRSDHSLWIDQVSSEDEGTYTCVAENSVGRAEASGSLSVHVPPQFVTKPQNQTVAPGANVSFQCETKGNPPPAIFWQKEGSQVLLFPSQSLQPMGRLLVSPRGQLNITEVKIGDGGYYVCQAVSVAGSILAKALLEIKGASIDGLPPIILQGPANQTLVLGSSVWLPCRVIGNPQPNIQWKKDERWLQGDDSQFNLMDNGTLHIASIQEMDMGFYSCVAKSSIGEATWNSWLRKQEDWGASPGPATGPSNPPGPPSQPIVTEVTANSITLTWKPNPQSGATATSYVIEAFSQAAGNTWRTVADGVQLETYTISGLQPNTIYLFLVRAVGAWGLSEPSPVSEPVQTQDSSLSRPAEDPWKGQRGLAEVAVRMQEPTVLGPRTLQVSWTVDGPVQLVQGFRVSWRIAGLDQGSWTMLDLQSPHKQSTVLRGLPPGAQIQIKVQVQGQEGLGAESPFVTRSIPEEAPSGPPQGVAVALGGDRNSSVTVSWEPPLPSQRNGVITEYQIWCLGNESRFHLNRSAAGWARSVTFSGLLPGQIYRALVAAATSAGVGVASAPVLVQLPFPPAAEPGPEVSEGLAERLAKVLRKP

## human NELL2-alkaline phosphatase fusion (NELL2-AP) (from UniProt Q99435 22-816) (ligand)
[1]
  binding: binds

## human NELL2 EGF domains 1-6 (from UniProt Q99435 397-638) (domain or fragment)
[2]
  binding: binds

## full-length human NELL2 (ECIA construct) (from UniProt Q99435 22-816) (ligand)
[3]
  binding: binds weakly

## full-length mouse NELL2 (from UniProt Q61220 25-819) (ligand)
[4]
  binding: binds
